Data on twelve molecules can be found in article doi:10.1101/2021.08.02.454780.

Amino acid sequences for entries named in this document (tags omitted). Residues count along the entry.
UniProt Q93ZX1: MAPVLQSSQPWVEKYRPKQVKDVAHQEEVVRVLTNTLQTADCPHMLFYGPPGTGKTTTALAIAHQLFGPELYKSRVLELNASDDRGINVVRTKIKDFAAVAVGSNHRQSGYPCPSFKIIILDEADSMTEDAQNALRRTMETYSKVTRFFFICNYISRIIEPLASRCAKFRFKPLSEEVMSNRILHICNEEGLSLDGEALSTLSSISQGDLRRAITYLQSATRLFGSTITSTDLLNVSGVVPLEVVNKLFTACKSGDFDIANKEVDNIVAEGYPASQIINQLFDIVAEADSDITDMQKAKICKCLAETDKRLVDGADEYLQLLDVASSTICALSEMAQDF
UniProt Q39043, residues 24-668: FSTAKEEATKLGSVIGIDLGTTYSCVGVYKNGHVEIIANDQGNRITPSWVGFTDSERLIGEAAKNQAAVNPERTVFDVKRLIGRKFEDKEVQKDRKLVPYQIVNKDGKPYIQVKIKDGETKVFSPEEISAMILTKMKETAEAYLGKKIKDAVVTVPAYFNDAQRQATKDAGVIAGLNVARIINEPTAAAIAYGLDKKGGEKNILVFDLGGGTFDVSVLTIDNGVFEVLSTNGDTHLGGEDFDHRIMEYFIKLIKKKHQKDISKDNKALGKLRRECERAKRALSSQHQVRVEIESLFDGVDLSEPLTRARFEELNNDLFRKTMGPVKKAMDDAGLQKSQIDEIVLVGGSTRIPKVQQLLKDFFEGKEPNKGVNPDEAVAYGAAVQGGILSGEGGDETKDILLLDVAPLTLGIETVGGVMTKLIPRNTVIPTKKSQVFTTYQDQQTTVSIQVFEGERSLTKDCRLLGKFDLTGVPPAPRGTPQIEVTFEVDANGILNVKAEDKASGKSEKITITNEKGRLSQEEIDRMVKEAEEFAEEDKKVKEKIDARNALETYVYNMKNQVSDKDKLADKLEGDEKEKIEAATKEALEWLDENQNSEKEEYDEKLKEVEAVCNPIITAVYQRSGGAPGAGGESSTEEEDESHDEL
UniProt Q94K07: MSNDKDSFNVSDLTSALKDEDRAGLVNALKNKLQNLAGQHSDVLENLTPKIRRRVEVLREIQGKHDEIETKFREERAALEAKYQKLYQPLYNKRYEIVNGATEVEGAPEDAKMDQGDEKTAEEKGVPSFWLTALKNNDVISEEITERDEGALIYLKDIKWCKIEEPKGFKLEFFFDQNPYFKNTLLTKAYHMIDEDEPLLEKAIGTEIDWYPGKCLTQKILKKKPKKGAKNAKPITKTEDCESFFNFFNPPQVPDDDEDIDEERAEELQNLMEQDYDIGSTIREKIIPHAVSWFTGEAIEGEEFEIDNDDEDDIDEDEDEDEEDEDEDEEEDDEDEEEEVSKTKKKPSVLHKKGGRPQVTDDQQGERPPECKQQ

These are yes or no findings as the source states them, for the method shown. In cells and extracts the contact can be indirect. Here binding means that the protein was enriched with, or labelled near, the bait; the list need not be complete. Where a sequence is shown, tags or fusion partners need not be part of it.

T1: MED17 fused to GFP (Mediator subunit 17, Arabidopsis) (A. thaliana), F4K460
T1 chain: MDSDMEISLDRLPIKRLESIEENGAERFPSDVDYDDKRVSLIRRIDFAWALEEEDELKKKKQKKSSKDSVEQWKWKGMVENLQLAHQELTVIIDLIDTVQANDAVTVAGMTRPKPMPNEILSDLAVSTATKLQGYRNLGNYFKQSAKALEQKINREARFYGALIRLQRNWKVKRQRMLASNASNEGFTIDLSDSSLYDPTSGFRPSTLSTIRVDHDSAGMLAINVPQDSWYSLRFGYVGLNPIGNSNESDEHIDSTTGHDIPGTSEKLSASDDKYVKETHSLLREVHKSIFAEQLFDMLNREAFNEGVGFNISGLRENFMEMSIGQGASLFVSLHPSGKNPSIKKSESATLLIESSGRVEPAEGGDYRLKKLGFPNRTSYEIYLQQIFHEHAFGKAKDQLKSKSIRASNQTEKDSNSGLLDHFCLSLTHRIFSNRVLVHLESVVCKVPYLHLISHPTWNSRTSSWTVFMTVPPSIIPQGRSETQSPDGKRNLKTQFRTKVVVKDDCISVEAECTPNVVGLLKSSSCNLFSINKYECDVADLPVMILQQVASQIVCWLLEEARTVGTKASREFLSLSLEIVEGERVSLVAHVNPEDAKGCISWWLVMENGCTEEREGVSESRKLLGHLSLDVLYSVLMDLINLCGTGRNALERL

T2: MED17 fused to GFP (Mediator subunit 17, Arabidopsis) (A. thaliana) (UniProt F4K460)
T2 sequence: T1 chain

B1: MED8, Q4V3C1 1-524 (protein)
chain: METQPQQPPPPPVAEKLNPKLEKELNLESLKTRAVSLAKAIARILEDFDAYGRTNTTPKWQDILGQYSMVNLELFNIVEEVKRVSNAFVVLPKNVNAMNAAILPVMLSSKLLPEMETDDNAKREQLLQGVQSLPIPMQIERLKARMDMIAAACENAERVLADTRKAYGFGTRQGPSMLPTMDKGQAAKIQEQEKMLRDAVNDGKGTQLPPDQRQITTALPPHLADVLIINDAGKIALPGQSNNINNQGMMQVSGTQFVGRSAASPSGPNFDNTTSPLPYSNSPRATGMVNVPSPQHQIQQQQFQQQQQRSKLMQLPQHQQQQLLAQQQQQLRQSSMQGLGQSQIPALHDMHGQAQQKFQTSHGQHQMPYSQPMGAHQQFQARQLSGGHIQHSMSQGQLNPAMNRHLNQFSGGANSALFTSAQGSPSSQMIPNMSSMQSQTLVPRMQQFGVSGTNPQRSHSSQMLGDQMFNTSGMMQTQQTQIQQSQQQQQQQQQGGYGNMQTNQQSLQPNNMMQNAQQRHQNPQ
B2: transcription initiation factor TFIID subunit 9 (protein, UniProt Q9SYH2 1-183)
chain: MAGEGEEDVPRDAKIVKSLLKSMGVEDYEPRVIHQFLELWYRYVVEVLTDAQVYSEHASKPNIDCDDVKLAIQSKVNFSFSQPPPREVLLELAASRNKIPLPKSIAGPGVPLPPEQDTLLSPNYQLVIPKKSVSTEPEETEDDEEMTDPGQSSQEQQQQQQQTSDLPSQTPQRVSFPLSRRPK
B3: histone chaperone NRP 2 (protein, UniProt Q8LC68 1-255)
chain: MVTDKSKKAKTEEENVEQIDAELVLSIEKLQEIQDDLEKINEKASDEVLEVEQKYNVIRKPVYDKRNEIIKTIPDFWLTAFLSHPALGELLTEEDQKIFKYLSSLDVEDAKDVKSGYSITFSFNPNPFFEDGKLTKTFTFLEEGTTKITATPIKWKEGKGLANGVNHEKNGNKRALPEESFFTWFSDAQHKEDVEDEMQDEVADIIKEDLWPNPLTYFNNDADEEDFDGDDDGDEEEKEGDSDEDDDEEDEVGEE
B4: histone chaperone NRP 1 (protein, UniProt Q9CA59 1-256)
chain: MVADKSKKSKIEEKGEEENLEQIDAELVLSIEKLQEIQDDLEKINEKASDEVLEVEQKYNVIRKPVYDKRNEVIQSIPGFWMTAFLSHPALGDLLTEEDQKIFKYLNSLEVEDAKDVKSGYSITFHFTSNPFFEDAKLTKTFTFLEEGTTKITATPIKWKEGKGLPNGVNHDDKKGNKRALPEESFFTWFTDAQHKEDAGDEIHDEVADIIKEDLWSNPLTYFNNDADEEDFDGDDDGDEEGEEDDDDEEEEDGEE
B5: sister chromatid cohesion 1 protein 4 (protein, UniProt Q8W1Y0 1-1031)
chain: MFYSQFILAKKGPLGTIWIAAHLERKLRKNQVADTDIGVSVDSILFPEAPIALRLSSHLLLGVVRIYSRKVNYLFDDCSEALLKVKQAFRSAAVDLPPEESTAPYHSITLPETFDLDDFELPDNEIFQGNYVDHHVSTKEQITLQDTMDGVVYSTSQFGLDERFGDGDTSQAALDLDEAVFQDKDVIGSDDEGVPGIDHNAYLDAAAPGIKDSMEGVSEAMPMDFNEEQVEDLAMNNEFIEDAQAPQTPGLVEVPNSSSVREQMACDDHMDVEDLNAEEGIKSSGELNANEMPKRGEDLSSEYNAPESAVTPVEVDKSQIDENVNTQNEPEEERAEHVHVTSPCCSHITTEMEDPGQVMNEAGANVVPDKPDAVPPLETPGEENRDHFAIATEVNQETDSSLQGDEQAYSRPDGQLNNAHETDEQLGNLTGFTDSDFPPPEKVLAVPNRQGDGNDFMVESTPDKEDPGTCNDDAGNNNITGKKRTFTESTLTAESLNSVESVGLIQSKRTADSVPDDDDLLSSILVGKSSFLKMRPTPVLEPATTKRLRSAPRSTATKRKVLMDDPMVLHGDIIRQQLTNTEDIRRVRKKAPCTVPEIVMLQRQALEDGLFKEPIFTGMSVELVSLHTEPYDLRGIMIIENDDRHASVGAVEDNECSVTAVEENKTEESSDPQAHPNDCEEQPGTAHTHPQEEQTINQQEELKDDNELAEKSDLEVLKEGNGAADEVNLVVIDDVSQIPSEEKLDRVEDLQVEESHENHDGEGGQDVCADPNEKSCTDVIEIAEGDTDINPIFNEMDLKVEDELPHEDEKTDASAEVSELGRDDQTPCDNTVGSTETGCLEAGDLSNMALENCNEPLVEANSDGLNPETESYNKYEPHNEMSNEEASMQNALDGEHTSRDGLMGDNDEMDTMENAHDTGFLNVDDDEVDEDHEEDDIQYDDETRLLENSGWSSRTRAVAKYLQTLFDKETENGKNVLVADKLLAGKTRKEASRMFFETLVLKTRDYIQVEQGKPYESIIIKPRPKLTKSIF
B6: cell division cycle 5-like protein (CDC5) (protein, UniProt P92948 1-844)
chain: MRIMIKGGVWKNTEDEILKAAVMKYGKNQWARISSLLVRKSAKQCKARWYEWLDPSIKKTEWTREEDEKLLHLAKLLPTQWRTIAPIVGRTPSQCLERYEKLLDAACTKDENYDAADDPRKLRPGEIDPNPEAKPARPDPVDMDEDEKEMLSEARARLANTRGKKAKRKAREKQLEEARRLASLQKRRELKAAGIDGRHRKRKRKGIDYNAEIPFEKRAPAGFYDTADEDRPADQVKFPTTIEELEGKRRADVEAHLRKQDVARNKIAQRQDAPAAILQANKLNDPEVVRKRSKLMLPPPQISDHELEEIAKMGYASDLLAENEELTEGSAATRALLANYSQTPRQGMTPMRTPQRTPAGKGDAIMMEAENLARLRDSQTPLLGGENPELHPSDFTGVTPRKKEIQTPNPMLTPSMTPGGAGLTPRIGLTPSRDGSSFSMTPKGTPFRDELHINEDMDMHESAKLERQRREEARRSLRSGLTGLPQPKNEYQIVAQPPPEESEEPEEKIEEDMSDRIAREKAEEEARQQALLKKRSKVLQRDLPRPPAASLAVIRNSLLSADGDKSSVVPPTPIEVADKMVREELLQLLEHDNAKYPLDDKAEKKKGAKNRTNRSASQVLAIDDFDENELQEADKMIKEEGKFLCVSMGHENKTLDDFVEAHNTCVNDLMYFPTRSAYELSSVAGNADKVAAFQEEMENVRKKMEEDEKKAEHMKAKYKTYTKGHERRAETVWTQIEATLKQAEIGGTEVECFKALKRQEEMAASFRKKNLQEEVIKQKETESKLQTRYGNMLAMVEKAEEIMVGFRAQALKKQEDVEDSHKLKEAKLATGEEEDIAIAMEASA

The target in one assay is T1, MED17 fused to GFP (Mediator subunit …). As to the kind of experiment: affinity purification with mass spectrometry. The settings on record: remark: other sources report otherwise.
On to B1, for which the binding result is on record as “binds”.

The target in another assay is T2, MED17 fused to GFP (Mediator subunit 17, Arabidopsis) (A. thaliana). In words: affinity purification with mass spectrometry.
Conditions: not given
Turning to DNA repair ATPase-related protein, the binding result is listed as “binds”.
For “replication factor C subunit 4 (from UniProt Q93ZX1 1-339)”, the binding result is reported as “binds”.
With MED37 F (from UniProt Q39043 24-668), the binding result is “binds”.
On to MED37 A/B, for which the binding entry was “binds”.
In the case of “histone chaperone NAP 1; 3 (from UniProt Q94K07 1-374)”, the binding entry is on record as “binds”.
As for “transcription initiation factor IIE subunit alpha”, the binding entry is given as “binds”.
Consider B2, for which the binding result is listed as “binds”.
Consider B3, for which the binding entry is “binds”.
Take B4: the binding result is recorded as “binds”.
B5: the binding entry is listed as “binds”.
As for B6, the binding result is “binds”.
